Measurements taken from PubChem BioAssay AID248 (DTP/NCI, 2004).
The list is a part of this screen's results and no random one: it gathers tests that were run many times, whatever their T/C, doses with no T/C, and many T/C values between a quarter and a half above the control. Further doses and runs are listed elsewhere. T/C is the treated group as % of the vehicle group. Some doses have a count of surviving animals in place of a T/C: the source holds a T/C of zero for them, seemingly a mark for toxic or unscored doses. Some survivor counts are full or nearly so, which does not show that the dose was tolerated: survival well below the control is almost never listed, so the zero probably covers shortened survival too. Counts of survivors are from the toxicity check (mostly the fifth day) where no day follows; animals may have died later. Schedule codes are those of the source, read here as Q, the interval in days (D) or hours (H), X, the number of doses. Some entries were tested several times; the values are given in rising order. Some schedules carry Z or #; the key to these is not given. For survival time, this PubChem deposit counts one and a half times the control or more as active, and values a quarter to a half above the control carry no call in these data; other NCI protocols may use other cut-offs.

System: L1210 leukemia ip in BDF1 mice, survival T/C
Test: NCI In Vivo Anticancer Drug Screen. Data for tumor model L1210 Leukemia (intraperitoneal) in B6D2F1 (BDF1) mice
Conditions: T/C endpoint: mean survival time, higher T/C = longer survival
[1] = dose: 200.0 mg/kg/injection, schedule: Q04DX003 (ip), vehicle: Klucel (hydroxypropylcellulose) (HPC)
[2] = dose: 400.0 mg/kg/injection, schedule: Q04DX003 (ip), vehicle: Klucel (hydroxypropylcellulose) (HPC)
[3] = dose: 100.0 mg/kg/injection, schedule: Q04DX003 (ip), vehicle: Klucel (hydroxypropylcellulose) (HPC)
[4] = dose: 100.0 mg/kg/injection, schedule: Q04DX002 (ip), vehicle: saline with Tween-80
[5] = dose: 200.0 mg/kg/injection, schedule: Q04DX002 (ip), vehicle: saline with Tween-80
[6] = dose: 400.0 mg/kg/injection, schedule: Q04DX002 (ip), vehicle: saline with Tween-80
[7] = dose: 200.0 mg/kg/injection, schedule: Q01DX009 (ip), vehicle: saline

In the case of `Nc1ncnc2c1c(Br)cn2C1OC(CO)C(O)C1O` (configuration not stated), the survivor count (dose: 10.0 mg/kg/injection, schedule: Q01DX001 (ip), vehicle: carboxymethylcellulose (CMC)) is reported as 3 of 6, the survivor count (dose: 20.0 mg/kg/injection, schedule: Q01DX001 (ip), vehicle: carboxymethylcellulose (CMC)) is reported as 0 of 6 and the survivor count (dose: 40.0 mg/kg/injection, schedule: Q01DX001 (ip), vehicle: carboxymethylcellulose (CMC)) is reported as 0 of 6. The survivor count (dose: 50.0 mg/kg/injection, schedule: Q01DX001 (ip), vehicle: carboxymethylcellulose (CMC)) was 0 of 4, the survivor count (dose: 80.0 mg/kg/injection, schedule: Q01DX001 (ip), vehicle: carboxymethylcellulose (CMC)) was 0 of 6 and the survivor count (dose: 100.0 mg/kg/injection, schedule: Q01DX001 (ip), vehicle: carboxymethylcellulose (CMC)) was 0 of 4. For the same compound, the survivor count (dose: 200.0 mg/kg/injection, schedule: Q01DX001 (ip), vehicle: carboxymethylcellulose (CMC)) was 0 of 4 and the survivor count (dose: 400.0 mg/kg/injection, schedule: Q01DX001 (ip), vehicle: carboxymethylcellulose (CMC)) was 0 of 4.

`C=CC1CC[N-]CC1.C=CC1CC[N-]CC1.C=CC1CC[N-]CC1.[Cl][Cr]([Cl])[Cl]` was tested, and the survivor count (dose: 100.0 mg/kg/injection, schedule: Q01DX009 (ip), vehicle: saline) was 3 of 6.

`O=NN1CCCNC1=O` was tested, and the T/C (dose: 25.0 mg/kg/injection, schedule: Q01DX Z (ip), vehicle: carboxymethylcellulose (CMC)) was 128 % of control, the survivor count (dose: 125.0 mg/kg/injection, schedule: Q01DX Z (ip), vehicle: carboxymethylcellulose (CMC)) was 5 of 6 and the survivor count (dose: 150.0 mg/kg/injection, schedule: Q01DX Z (ip), vehicle: carboxymethylcellulose (CMC)) was 3 of 6.

With `CC/C(=C\c1ccc(Cl)cc1)[N+](=O)[O-]` the survivor count (dose: 100.0 mg/kg/injection, schedule: Q01DX009 (ip), vehicle: Klucel (hydroxypropylcellulose) (HPC)) was 5 of 6, the survivor count [1] was 3 of 6 and 4 of 6 and the survivor count [2] was 1 of 6.

`c1ccc(CSc2nccc(NN=C3CCCCC3)n2)cc1` was tested, and the survivor count (dose: 100.0 mg/kg/injection, schedule: Q01DX001 (ip), vehicle: DMSO) was 6 of 6 and the survivor count (dose: 300.0 mg/kg/injection, schedule: Q01DX009 (ip), vehicle: DMSO) was 4 of 6.

With `CCC1CN2C(=N1)c1ccccc1-c1cc(Br)ccc12` (configuration not stated) the survivor count (dose: 20.0 mg/kg/injection, schedule: Q04DX003 (ip), vehicle: Klucel (hydroxypropylcellulose) (HPC)) was 6 of 6, the survivor count (dose: 40.0 mg/kg/injection, schedule: Q04DX003 (ip), vehicle: Klucel (hydroxypropylcellulose) (HPC)) was 6 of 6 and the survivor count (dose: 80.0 mg/kg/injection, schedule: Q04DX003 (ip), vehicle: Klucel (hydroxypropylcellulose) (HPC)) was 2 of 6. For the same compound, the survivor count [3] was 4 of 6, the survivor count [1] was 0 of 6 and the survivor count [2] was 0 of 6.

`O=S(=O)(O)O.[NH-]CC(N)=O.[NH-]CC(N)=O.[Ni+2]` was tested, and the survivor count (dose: 25.0 mg/kg/injection, schedule: Q01DX009 (ip), vehicle: water) was 6 of 6, the survivor count (dose: 50.0 mg/kg/injection, schedule: Q01DX009 (ip), vehicle: water) was 0 of 6 and the survivor count (dose: 100.0 mg/kg/injection, schedule: Q01DX009 (ip), vehicle: water) was 0 of 6. The survivor count (dose: 100.0 mg/kg/injection, schedule: Q04DX003 (ip), vehicle: water) was 5 of 6, the survivor count (dose: 200.0 mg/kg/injection, schedule: Q04DX003 (ip), vehicle: water) was 1 of 6 and the survivor count (dose: 400.0 mg/kg/injection, schedule: Q04DX003 (ip), vehicle: water) was 0 of 6.

`CCCCC(CSC#N)SC#N` (configuration not stated) was tested, and the survivor count [4] was 0 of 3, the survivor count [5] was 0 of 3 and the survivor count [6] was 0 of 3.

`N#Cc1ccc(N=S=O)cc1` was tested, and the survivor count [6] was 1 of 3.

For `COc1ccc(CC(C)=C(C#N)C#N)cc1OC`, the survivor count [4] was 1 of 3, the survivor count [5] was 0 of 3 and the survivor count [6] was 0 of 3.

For `CC1(C)N=C(N)N=C(N)N1c1cccc(OCCC#N)c1`, the survivor count (dose: 200.0 mg/kg/injection, schedule: Q04DX003 (ip), vehicle: saline) was 0 of 3 and the survivor count (dose: 400.0 mg/kg/injection, schedule: Q04DX003 (ip), vehicle: saline) was 0 of 3.

With `CC(C)=NNC(=O)c1ccccn1` the survivor count (dose: 200.0 mg/kg/injection, schedule: Q01DX009 (ip), vehicle: carboxymethylcellulose (CMC)) was 1 of 6 and 3 of 3 and the survivor count (dose: 200.0 mg/kg/injection, schedule: Q04DX003 (ip), vehicle: carboxymethylcellulose (CMC)) was 0 of 6.

`CCOC(=O)c1ccc(NC(=S)Nc2ccccc2S)cc1` was tested, and the survivor count [5] was 1 of 3 and the survivor count [6] was 0 of 3.

With `CC(C)C1CCC(NC(=O)NCCF)CC1` (configuration not stated) the survivor count (dose: 75.0 mg/kg/injection, schedule: Q01DX001 (ip), vehicle: other) was 0 of 6, the survivor count (dose: 150.0 mg/kg/injection, schedule: Q01DX001 (ip), vehicle: other) was 0 of 6 and the survivor count (dose: 300.0 mg/kg/injection, schedule: Q01DX001 (ip), vehicle: other) was 0 of 6.

For `CS(=O)(=O)OCC(=O)NCC(O)CNC(=O)COS(C)(=O)=O`, the T/C (dose: 18.8 mg/kg/injection, schedule: Q01DX015 (ip), vehicle: saline) was 125 % of control, the T/C (dose: 36.0 mg/kg/injection, schedule: Q01DX009 (ip), vehicle: saline) was 126 % of control and the T/C (dose: 37.5 mg/kg/injection, schedule: Q01DX015 (ip), vehicle: saline) was 125 % of control. The T/C (dose: 54.0 mg/kg/injection, schedule: Q01DX009 (ip), vehicle: saline) was 139 % of control, the survivor count (dose: 256.0 mg/kg/injection, schedule: Q01DX009 (ip), vehicle: saline) was 2 of 6 and the survivor count (dose: 400.0 mg/kg/injection, schedule: Q01DX009 (ip), vehicle: saline) was 0 of 6. The survivor count (dose: 600.0 mg/kg/injection, schedule: Q01DX009 (ip), vehicle: saline) was 0 of 6.

For `CC1C=C(Br)C(=O)c2ccccc2N1S(C)(=O)=O` (configuration not stated), the survivor count (dose: 50.0 mg/kg/injection, schedule: Q01DX009 (ip), vehicle: Klucel (hydroxypropylcellulose) (HPC)) was 1 of 6, the survivor count (dose: 50.0 mg/kg/injection, schedule: Q04DX003 (ip), vehicle: Klucel (hydroxypropylcellulose) (HPC)) was 6 of 6 and the survivor count [3] was 0 of 6 and 5 of 6. For the same compound, the survivor count [1] was 1 of 6 and the survivor count [2] was 2 of 6.

For `CC12CC3(O)CCC1CCC2C(=O)C3` (configuration not stated), the survivor count [7] was 6 of 6.

`N#CC(C(=O)c1ccccc1)c1ccccc1` (configuration not stated) was tested, and the survivor count (dose: 250.0 mg/kg/injection, schedule: Q04DX002 (ip), vehicle: Klucel (hydroxypropylcellulose) (HPC)) was 3 of 3.

In the case of `N#Cc1ccccc1NN=Nc1ccccc1-c1nc(N)nc(N)n1`, the survivor count (dose: 100.0 mg/kg/injection, schedule: Q04DX003 (ip), vehicle: saline) is reported as 2 of 6.

With `COc1ccc(C(CC(=O)c2ccccc2)Sc2ccccc2N)cc1OC` (configuration not stated) the survivor count (dose: 400.0 mg/kg/injection, schedule: Q01DX005 (ip), vehicle: Klucel (hydroxypropylcellulose) (HPC)) was 1 of 3.

In the case of `CC(=O)CC(=O)N(C)c1ccccc1`, the survivor count (dose: 300.0 mg/kg/injection, schedule: Q01DX001 (ip), vehicle: carboxymethylcellulose (CMC)) is reported as 1 of 6.

`ClCOCCCCOCCl` was tested, and the survivor count [7] was 0 of 3.

For `CNC/C(Cl)=N/S(=O)(=O)c1ccc(C)cc1`, the survivor count (dose: 25.0 mg/kg/injection, schedule: Q04DX002 (ip), vehicle: saline with Tween-80) was 3 of 3.

For `C1=Nc2c(ccc3ccccc23)CS1`, the survivor count (dose: 200.0 mg/kg/injection, schedule: Q04DX002 (ip), vehicle: other) was 1 of 3 and the survivor count (dose: 400.0 mg/kg/injection, schedule: Q04DX002 (ip), vehicle: other) was 1 of 3.

`O/N=C/c1ccc(O)cc1` was tested, and the survivor count (dose: 400.0 mg/kg/injection, schedule: Q01DX001 (ip), vehicle: saline) was 0 of 4.
